The list shows only some results of the screen, not a fair sample: it gathers tests that were run many times, whatever their T/C, doses with no T/C, and many T/C values between a quarter and a half above the control. Other doses and runs of a compound stand elsewhere. T/C gives the treated animals as a percentage of the vehicle group. Some doses have a count of surviving animals in place of a T/C: the source holds a T/C of zero for them, seemingly a mark for toxic or unscored doses. Some doses without a T/C left all or most animals alive at the check, yet need not have been tolerated: the source hardly ever lists a survival T/C far under the control, and the zero likely stands for such cases as well. Survivors were counted at the toxicity check, usually on the fifth day, unless a day is given; later deaths do not show. Schedules are NCI's codes, taken here to give the interval after Q, in days (D) or hours (H), and the number of doses after X. Brackets with × say how often a value occurs here. Where survival is the endpoint, this PubChem deposit counts one and a half times the control or more as active, and values a quarter to a half above the control carry no call in these data; other NCI protocols may use other cut-offs. Some T/C values are followed by the survivors on the day toxicity was checked, most often the fifth; without a count, all were alive then.
Tested on: BDF1 mice, B16 melanoma ip, median survival T/C
Assay: NCI In Vivo Anticancer Drug Screen. Data for tumor model B16 Melanoma (intraperitoneal) in B6D2F1 (BDF1) mice
Conditions: T/C endpoint: median survival time, higher T/C = longer survival
Protocol: The antitumor activity of compounds was measured in mice bearing transplantable tumors. Survival or tumor size were measured and the results are expressed as the measurement made in the treated group (T) divided by the measurement made in the vehicle treated control group (C). The tumor model used in this assay is B16 Melanoma (intraperitoneal) in B6D2F1 (BDF1) mice

[1] = dose: 400.0 mg/kg/injection, schedule: Q01DX009 (ip), vehicle: saline with Tween-80
[2] = dose: 100.0 mg/kg/injection, schedule: Q01DX009 (ip), vehicle: saline
[3] = dose: 400.0 mg/kg/injection, schedule: Q01DX009 (ip), vehicle: Klucel (hydroxypropylcellulose) (HPC)
[4] = dose: 200.0 mg/kg/injection, schedule: Q01DX009 (ip), vehicle: saline with Tween-80
[5] = dose: 25.0 mg/kg/injection, schedule: Q01DX009 (ip), vehicle: saline with Tween-80
[6] = dose: 100.0 mg/kg/injection, schedule: Q01DX009 (ip), vehicle: saline with Tween-80

COc1cc(C(C)c2cc3c(cc2OCCO)OCO3)cc(OC)c1OC (configuration not stated)
survivor count [1]: 2 of 10

CCCCNC(C)(C)COC(=O)/C=C/c1ccc(OCCCC)cc1
survivor count (dose: 200.0 mg/kg/injection, schedule: Q01DX009 (ip), vehicle: saline sonified): 4 of 6

Cc1ccc2c(c1)C(=O)N(CC[P+](c1ccccc1)(c1ccccc1)c1ccccc1)C2=O
survivor count (dose: 25.0 mg/kg/injection, schedule: Q01DX009 (ip), vehicle: Klucel (hydroxypropylcellulose) (HPC)): 8 of 10

N#CC1CCCC[N-]1.[NH-]CC[N-]CC[NH-].[Pt+4] (configuration not stated)
survivor count (dose: 50.0 mg/kg/injection, schedule: Q01DX009 (ip), vehicle: saline): 10 of 10 | survivor count [2]: 10 of 10

CN(CCOc1ccccc1O)CCOc1ccccc1O
survivor count [3]: 2 of 10

CCCCCCCCCNC(=O)Nc1cccc(Cl)c1C
survivor count [4]: 10 of 10

CC1NC(=O)COC1c1ccccc1 (configuration not stated)
survivor count (dose: 200.0 mg/kg/injection, schedule: Q01DX009 (ip), vehicle: Klucel (hydroxypropylcellulose) (HPC)): 8 of 10

CN(C)CCCNC(=S)S
survivor count (dose: 100.0 mg/kg/injection, schedule: Q04DX003 (ip), vehicle: saline): 0 of 10 | survivor count (dose: 200.0 mg/kg/injection, schedule: Q04DX003 (ip), vehicle: saline): 0 of 10 | survivor count (dose: 400.0 mg/kg/injection, schedule: Q04DX003 (ip), vehicle: saline): 0 of 10

O=NN(CCF)C(=O)NC1C(O)CCCC1O (configuration not stated)
T/C (dose: 3.75 mg/kg/injection, schedule: Q01DX001 (ip), vehicle: saline): 126 % of control

CC1=CC(O)C(O)C2(C)C1CC(=O)C13COC4OC(CC1C4=O)C(O)C32 (configuration not stated)
survivor count (dose: 2.5 mg/kg/injection, schedule: Q01DX009 (ip), vehicle: saline with Tween-80): 10 of 10

CC1NCCOC1c1ccccc1 (configuration not stated)
T/C (dose: 6.25 mg/kg/injection, schedule: Q01DX009 (ip), vehicle: saline): 132 % of control | T/C (dose: 12.5 mg/kg/injection, schedule: Q01DX009 (ip), vehicle: saline): 135 % of control [8 of 10 alive] | survivor count [2]: 10 of 10 | survivor count (dose: 200.0 mg/kg/injection, schedule: Q01DX009 (ip), vehicle: saline): 0 of 10 | survivor count (dose: 400.0 mg/kg/injection, schedule: Q01DX009 (ip), vehicle: saline): 0 of 10

Cc1cnc2c(=N)n(C(=O)C(F)(F)F)n(C)c2n1
survivor count [3]: 0 of 10

O=S(=O)(SC(S(=O)(=O)c1ccccc1)S(=O)(=O)c1ccccc1)c1ccccc1
survivor count [3]: 10 of 10

O=C(O)CN(CCN(CC(=O)O)CC(=O)O)CCN(CC(=O)O)CC(=O)O
survivor count (dose: 12.5 mg/kg/injection, schedule: Q01DX009 (ip), vehicle: Klucel (hydroxypropylcellulose) (HPC)): 10 of 10 | survivor count (dose: 100.0 mg/kg/injection, schedule: Q01DX009 (ip), vehicle: Klucel (hydroxypropylcellulose) (HPC)): 6 of 10 | survivor count [3]: 0 of 10

Cc1cc(C)c(C(Cl)(Cl)Cl)c(C)c1Cl
survivor count [5]: 10 of 10 (2×) | survivor count (dose: 50.0 mg/kg/injection, schedule: Q01DX009 (ip), vehicle: saline with Tween-80): 10 of 10 | survivor count [6]: 4 of 10 | survivor count [4]: 2 of 10

O=C(O)c1cccc2[nH]c(=O)oc(=O)c12
survivor count [1]: 9 of 10

CCN(CC)CCNc1ccc(N=Nc2cnc3ccccc3c2)c2ccccc12
survivor count [6]: 9 of 10 | survivor count [4]: 6 of 10

CC(C)NCC(O)COc1cccc2ccccc12 (configuration not stated)
survivor count (dose: 128.0 mg/kg/injection, schedule: Q01DX009 (ip), vehicle: Klucel (hydroxypropylcellulose) (HPC)): 0 of 10

CC1(C)C(C#N)C(=O)N=C(N)C1C(N)=O (configuration not stated)
survivor count (dose: 50.0 mg/kg/injection, schedule: Q04DX003 (ip), vehicle: Klucel (hydroxypropylcellulose) (HPC)): 10 of 10

CCN=NNc1ccc(C)cc1
survivor count (dose: 100.0 mg/kg/injection, schedule: Q04DX003 (ip), vehicle: saline with Tween-80): 9 of 10 | survivor count (dose: 200.0 mg/kg/injection, schedule: Q04DX003 (ip), vehicle: saline with Tween-80): 0 of 10 | survivor count (dose: 400.0 mg/kg/injection, schedule: Q04DX003 (ip), vehicle: saline with Tween-80): 0 of 10

CC(C)N1C(=O)C=C(c2ccc([N+](=O)[O-])cc2)C1=O
survivor count (dose: 6.25 mg/kg/injection, schedule: Q01DX009 (ip), vehicle: saline with Tween-80): 10 of 10 | survivor count [5]: 10 of 10
